# In patent US20080213780A1, “MULTI-COLOR TIME RESOLVED FLUOROPHORES BASED ON MACROCYCLIC LANTHANIDE COMPLEXES” (Lumiphore, Inc., priority 2007, published 2008):
# At least one structure is not confirmed: it was looked up by name or label, or the drawing left a doubt.
# Experiment: Fluorescence lifetime decay (time-resolved) of the donor-acceptor conjugate
# Format: physicochemical
# Conditions: direct excitation
# From the text: A short lifetime corresponding to the direct excitation of fluorescein (3.92 nsec) and a long lifetime corresponding to excitation of BH22IAM and energy transfer to fluorescein (524 nsec).
# In another exemplary embodiment, the compounds of the invention emit light at an emission wavelength of the fluorophore attached to the metal chelate through the acceptor-linker. […] For example, compound 3, when coordinated to terbium and excited at a BH22IAM absorption wavelength (˜340 nm), the metal chelate emits at 520 nm, the characteristic wavelength of fluorescein with a lifetime of 524 nsec. The new lifetime is over 100-fold longer than the lifetime for a fluorescein solution that is directly excited (<5 nsec).
# The 524 nsec of the conjugated fluorescein is acquired through direct excitation of the Tb-BH22IAM complex at 340 nm, which normally has a very long lifetime (2.6 msec), followed by energy transfer to the conjugated fluorescein and emission at the characteristic wavelength for fluorescein (520 nm).
structure (smiles),measurement,value
"O=C1OC2(c3ccc(O)cc3Oc3cc(O)ccc32)c2ccccc21 [fluorescein, reference compound]",lifetime of a directly excited fluorescein solution,< 5 nsec
